Data published in patent US20230172940A1, “METHODS OF EXTENDING LIFESPAN BY ADMINISTERING FERROPTOSIS INHIBITORS” (COLLABORATIVE MEDICINAL DEVELOPMENT, LLC, priority 2020, published 2023).

System: C. elegans strain TJ1060
Experiment: Testing for departure from temporal rescaling (K-S test on AFT residuals of lifespan data)
Set-up: species or system Caenorhabditis elegans
Details: 8 independent experiments combined; p<0.01

SMILES	consistency of lifespan increase with temporal scaling model (AFT)
Clc1cccc(CNC2=Nc3ccccc3NC23CCNCC3)c1 [Lip-1, N-[(3-chlorophenyl)methyl]-spiro[piperidine-4,2′(1′H)-quinoxalin]-3′-amine]	not consistent with the temporal scaling model
O=C(N/N=C/c1ccccc1O)c1ccncc1 [SIH, Salicylaldehyde isonicotinoyl hydrazone]	not consistent with the temporal scaling model
